According to PMC10163288:
The other results are listed elsewhere or left out.

B1: il2ra_site1_3nfp_sap_21_mot_HHH_b1_02247_af2_000000083_0001_41_56_H_._HHH_b1_01686_af2_0001_0000600021_0000001_0_0001 (protein)
chain: SSSSSEVEERVERLLEEAKEVLEEGDWERAHEIVQEAMHVASRNANDELDRLILEWVRREASSSS
B2: il2ra_site1_1z92_sap_14_mot_HHH_b2_00990_000000082_0001_45_58_H_._HHH_b2_07870_af2_0001_0000600070_0000001_0_0001_af2pred_0001_af2pred_swapped (protein)
chain: SSSSSSERFARQVVKILVKLANLSEEQEEELEKLAEELVKRGYSWREISKILNELAARLDSSSSS
B3: il2ra_site2_2erj_normal_mot_HHH_b1_07204_000000037_0001_41_57_H_._HHH_b2_03327_af2_0001_0000400027_0000001_0 (protein)
chain: SSSDREERAEEVVERLVRELGLNELAERFLERNAEFAIEAGASPEEIERSLEESAKIIAEAQSSS
B4: il2ra_site2_3nfp_normal_mot_HHH_b1_04960_000000149_0001_23_39_H_._HHH_b2_01567_af2_0001_0001300067_0000001_1 (protein)
chain: SSSSDEEAEELLEEAKELLKDERLAEEAEEALLRAAALAAQEGDFELFAEIVELMEEVARSSSSS
B5: il2ra_site1_3nfp_sap_11_mot_HHH_b1_07644_af2_000000110_0001_40_57_H_._HHH_b2_03307_0001_0000500025_0000001_0_0001_af2pred_0001_af2pred_1 (protein)
chain: SEEEREEVEELLRKVDPEAVEIFRRVIELIERLGDPALKFALESVLRAAKRDPETAARLLRRLMK
B6: il2ra_site2_3nfp_normal_mot_b35798fd3694cae0124b3072f1761b69_0001_1_000000048_0001_36_50_H_._ea668602291a2ecc16ad0111e2d152a8_0001_0001_0000100004_0000001_0 (protein)
chain: SIEEILEELIEKVANVPPERAKELLEEFERAAGTPEAVLRILLRFAEFLGDPEVARALERLLKET
B7: il2ra_site2_3nfp_normal_mot_HHH_b1_00660_af2_000000090_0001_40_57_H_._HHH_b2_03957_0001_0000100002_0000001_0_af2pred_0001_af2pred (protein)
chain: SSSSDVEEQVRELLKEAEELLERGNPEEAKEVLEEAALLAIEARDFELFALINELIEKVLGSSSS
B8: il2ra_site2_3nfp_sap_20_mot_HHH_b2_08245_000000023_0001_41_55_H_._HHH_b2_07710_0001_0000200007_0000001_0_0001 (protein)
chain: DVYEELEEKAEEAARKQDPELAAEVIDLASENPEAWEKLRKVLRELNTILELYRLALEWYRKAQS
B9: il2ra_site2_3nfp_sap_27_mot_HHH_b1_06797_000000164_0001_24_40_H_._HHH_b2_04633_0001_0000200035_0000001_0_0001 (protein)
chain: SSSSDEEREELYELLEELFRLINEGDDEKFRKLEKRLEELAKELRSPHVEKAVERAEEEFHSSSS
B10: il2ra_site1_1z92_normal_mot_HHH_b1_02043_af2_000000156_0001_1_14_H_._HHH_b1_03493_af2_0001_0000100003_0000001_0_af2pred_0001_af2pred (protein)
chain: SSSSSDEELLKEAEELLEEAKHADAQELFELAELLNELAKKAEDDEVFEEIAKIFRKLVSSSSSS
B11: il2ra_site1_3nfp_sap_7_mot_HHH_b2_00857_af2_000000076_0001_1_16_H_._HHH_b1_07967_0001_0000100005_0000001_0_0001_1 (protein)
chain: SSSSSDAVEIARRVSELLKEAAKVSEEEVERLLEEAKELAKEANDPQAERLIEDAERIIRSSSSS
B12: il2ra_site1_1z92_sap_14_mot_HHH_b2_03734_000000087_0001_38_51_H_._HHH_b1_07590_0001_0000100003_0000001_0_0001 (protein)
chain: PPVEEALEIARELGDPDLVEVLEWLLRALERDPNDKAVEYLVENLYRTLKRDPEAASKQAKKFLR
B13: il2ra_site2_3nfp_sap_25_mot_HHH_b1_04762_000000120_0001_42_54_H_._e25eb812683db3a1eee71c331fe53a14_0001_af2_0001_0000100004_0000001_0_0001_af2pred_0001_af2pred (protein)
chain: SRELSQRILELLERGDPVAYALATLLAAVLHEGDPRLKELLEQALEALERGNPEEAKEIVRRALS
B14: il2ra_site1_2b5i_normal_mot_f5ff40796168375b462bec8614a1db4a_0001_1_000000138_0001_53_65_H_._HHH_b1_00383_af2_0001_0000200009_0000001_0_af2pred_dldesign_0_af2pr … (protein)
chain: SSSSSDLPELAQELFDEAKRLLEEGKKEEAYKLLRLARRVARKGGDEELIAEIEKLLKELESSSS
B15: il2ra_site2_2erj_normal_mot_HHH_b2_00732_af2_000000006_0001_23_40_H_._HHH_b2_05430_0001_0000500016_0000001_0 (protein)
chain: SSSSYEELREVMELLAEALRAAWEGDPELVRELLEEAKRLAEEANNEDLEEVIEEAERYLRSSSS
B16: il2ra_site1_2b5i_normal_mot_22370d59370c406a0c205a431f537cfa_0001_af2_000000027_0001_1_31_H_._HHH_b2_07439_af2_0001_0000100009_0000001_0 (protein)
chain: SSSDNEEIREITKIVWRLRFEFNLSKEQAQELARLAAELLDRGISVEEIEKILEELAEELGSSSS
B17: il2ra_site1_1z92_sap_9_mot_HHH_b2_02761_000000226_0001_1_18_H_._d3190f16c0c9ad810059a204378775c7_0001_af2_0001_0000100002_0000001_0_0001 (protein)
chain: DVERFIEFLERKGRVSPEKIAKSLAAFVRIAERKSPEAAETFEEDLEELSKTDPIAQLALELLRR
B18: il2ra_site1_3nfp_sap_6_mot_HHH_b1_07880_af2_000000062_0001_1_16_H_._HHH_b2_02959_0001_0000500040_0000001_0_0001 (protein)
chain: SSSSSDIEERIRELLEEAKEISDPREALRLFREALRLAARAQDPELERLVFEAVRAMAGSSSSSS

biological target: il2ra, P01589; experiment: yeast display titration

Apparent Kd, inactive:
B1 no binding seen
B2 no binding seen
B3 no binding seen
B4 no binding seen
B5 no binding seen
B6 no binding seen
B7 no binding seen
B8 no binding seen
B9 no binding seen
B10 no binding seen
B11 no binding seen
B12 no binding seen
B13 no binding seen
B14 no binding seen
B15 no binding seen
B16 no binding seen
B17 no binding seen
B18 no binding seen

Random excerpt: 2 entries already listed, in no set order.
Apparent Kd, inactive:
B6 no binding seen
B7 no binding seen
